Results reported in article PMC3313996.
No constants are given. Whether binding was seen depends on the method and setting. Some entries that bind do so weakly or less than the wild type.

By UniProt entry, the sequences of proteins in these tests, tags left out.
UniProt P16790: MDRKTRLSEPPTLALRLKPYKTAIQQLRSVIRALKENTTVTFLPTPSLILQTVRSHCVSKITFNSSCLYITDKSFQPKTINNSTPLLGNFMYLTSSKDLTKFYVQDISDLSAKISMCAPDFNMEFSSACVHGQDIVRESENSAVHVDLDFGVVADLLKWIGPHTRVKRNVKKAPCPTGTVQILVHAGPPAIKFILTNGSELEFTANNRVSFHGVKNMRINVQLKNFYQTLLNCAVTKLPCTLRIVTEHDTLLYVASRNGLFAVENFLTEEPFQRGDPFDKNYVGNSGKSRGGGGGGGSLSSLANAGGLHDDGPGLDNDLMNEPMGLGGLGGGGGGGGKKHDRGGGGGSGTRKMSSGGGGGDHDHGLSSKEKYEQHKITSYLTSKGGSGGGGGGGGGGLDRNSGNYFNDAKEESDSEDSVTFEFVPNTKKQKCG
UniProt Q12824: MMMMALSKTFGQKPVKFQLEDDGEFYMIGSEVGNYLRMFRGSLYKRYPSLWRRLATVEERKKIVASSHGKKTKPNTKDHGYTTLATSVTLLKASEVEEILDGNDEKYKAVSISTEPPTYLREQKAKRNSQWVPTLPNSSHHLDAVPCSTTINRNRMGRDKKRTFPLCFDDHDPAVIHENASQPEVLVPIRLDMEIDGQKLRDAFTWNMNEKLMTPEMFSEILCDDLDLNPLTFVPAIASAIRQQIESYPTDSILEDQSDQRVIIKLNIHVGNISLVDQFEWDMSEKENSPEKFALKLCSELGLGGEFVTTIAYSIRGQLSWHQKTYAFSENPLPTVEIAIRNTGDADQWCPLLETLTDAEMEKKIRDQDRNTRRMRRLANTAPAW

B1: purified recombinant UL114 (enzyme, UniProt P16769 1-250)
chain: MALKQWMLANIADNKGSLLTPDEQARVFCLSADWIRFLSLPDHDTVLLRDTVAAVEGARQLEMVYPAPEHVHRWSYLCPPEQVRVVIVGQDPYCDGSASGLAFGTLAGRPPPPSLNNVFRELARTVDGFQRPASGCLDAWARRGVLLLNTVFTVVHGQPGSHRHLGWQTLSNHVIRRLSERREHLVFMLWGADAHTCEYLIDRRRHLVLKSCHPSPRNTTRAFVGNDHFILANAYLDTHYRETMDWRLCG

Legend:
[1] = target: His6-UL44 (human cytomegalovirus (HCMV)) (UniProt P16790); test: pull-down; 15 µg His6-UL44 immobilised on Dynabeads His-Tag; 20 µg GST-SMARCB1 or GST in pull-down buffer (6.5 mM Na-phosphate pH 7.4, 140 mM NaCl, 50 mM imidazole, 0.01% Tween-20); SDS-PAGE, Coomassie blue; both purified
[2] = target: GST-SMARCB1 (human full-length SMARCB1 in pDEST15) (human) (UniProt Q12824); test: pull-down; 10 µg purified GST-SMARCB1 on BcMag GST magnetic beads, 20 µg purified recombinant UL114 added; western blot; both purified

Molecule | binding [1] | binding [2]
GST-SMARCB1 (human full-length SMARCB1 in pDEST15) (from UniProt Q12824 1-385) | binds | 
B1 |  | binds
